In the supplement of paper PMC12067093, “Discovery and optimisation of a covalent ligand for TRIM25 and its application to targeted protein ubiquitination” (Chemical Science, 2025):
The list shows a part of the results.

Sequences of proteins named here, by UniProt entry; tags and fusion partners are left off. A change or cut given only in a name is not applied to a line headed by its entry.
UniProt O00567: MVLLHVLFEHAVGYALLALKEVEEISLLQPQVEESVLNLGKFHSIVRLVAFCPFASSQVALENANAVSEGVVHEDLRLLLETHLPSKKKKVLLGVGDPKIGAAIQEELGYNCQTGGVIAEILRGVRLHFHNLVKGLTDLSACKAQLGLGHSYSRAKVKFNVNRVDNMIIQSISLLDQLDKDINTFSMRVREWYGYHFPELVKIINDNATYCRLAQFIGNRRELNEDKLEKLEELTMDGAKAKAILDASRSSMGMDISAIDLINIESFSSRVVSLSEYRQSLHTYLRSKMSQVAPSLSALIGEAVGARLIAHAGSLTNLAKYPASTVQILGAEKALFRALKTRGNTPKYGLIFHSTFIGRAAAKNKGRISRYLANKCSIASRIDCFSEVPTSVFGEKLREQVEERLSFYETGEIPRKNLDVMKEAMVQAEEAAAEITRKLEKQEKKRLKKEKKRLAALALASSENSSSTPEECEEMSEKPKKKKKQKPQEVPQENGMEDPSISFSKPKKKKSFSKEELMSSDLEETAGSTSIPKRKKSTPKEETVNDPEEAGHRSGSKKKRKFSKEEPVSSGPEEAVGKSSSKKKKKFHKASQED
UniProt Q9ULX3: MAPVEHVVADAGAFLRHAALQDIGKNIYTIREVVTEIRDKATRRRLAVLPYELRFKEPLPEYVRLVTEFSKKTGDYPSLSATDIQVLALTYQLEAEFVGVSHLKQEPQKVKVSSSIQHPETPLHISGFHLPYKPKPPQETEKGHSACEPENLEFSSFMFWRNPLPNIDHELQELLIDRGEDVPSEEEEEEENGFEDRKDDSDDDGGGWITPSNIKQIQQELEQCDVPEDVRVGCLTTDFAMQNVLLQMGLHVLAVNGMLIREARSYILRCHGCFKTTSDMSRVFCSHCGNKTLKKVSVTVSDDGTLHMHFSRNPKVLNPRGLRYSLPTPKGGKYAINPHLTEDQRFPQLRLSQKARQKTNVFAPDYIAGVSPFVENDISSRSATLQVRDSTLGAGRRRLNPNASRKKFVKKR
UniProt O96028: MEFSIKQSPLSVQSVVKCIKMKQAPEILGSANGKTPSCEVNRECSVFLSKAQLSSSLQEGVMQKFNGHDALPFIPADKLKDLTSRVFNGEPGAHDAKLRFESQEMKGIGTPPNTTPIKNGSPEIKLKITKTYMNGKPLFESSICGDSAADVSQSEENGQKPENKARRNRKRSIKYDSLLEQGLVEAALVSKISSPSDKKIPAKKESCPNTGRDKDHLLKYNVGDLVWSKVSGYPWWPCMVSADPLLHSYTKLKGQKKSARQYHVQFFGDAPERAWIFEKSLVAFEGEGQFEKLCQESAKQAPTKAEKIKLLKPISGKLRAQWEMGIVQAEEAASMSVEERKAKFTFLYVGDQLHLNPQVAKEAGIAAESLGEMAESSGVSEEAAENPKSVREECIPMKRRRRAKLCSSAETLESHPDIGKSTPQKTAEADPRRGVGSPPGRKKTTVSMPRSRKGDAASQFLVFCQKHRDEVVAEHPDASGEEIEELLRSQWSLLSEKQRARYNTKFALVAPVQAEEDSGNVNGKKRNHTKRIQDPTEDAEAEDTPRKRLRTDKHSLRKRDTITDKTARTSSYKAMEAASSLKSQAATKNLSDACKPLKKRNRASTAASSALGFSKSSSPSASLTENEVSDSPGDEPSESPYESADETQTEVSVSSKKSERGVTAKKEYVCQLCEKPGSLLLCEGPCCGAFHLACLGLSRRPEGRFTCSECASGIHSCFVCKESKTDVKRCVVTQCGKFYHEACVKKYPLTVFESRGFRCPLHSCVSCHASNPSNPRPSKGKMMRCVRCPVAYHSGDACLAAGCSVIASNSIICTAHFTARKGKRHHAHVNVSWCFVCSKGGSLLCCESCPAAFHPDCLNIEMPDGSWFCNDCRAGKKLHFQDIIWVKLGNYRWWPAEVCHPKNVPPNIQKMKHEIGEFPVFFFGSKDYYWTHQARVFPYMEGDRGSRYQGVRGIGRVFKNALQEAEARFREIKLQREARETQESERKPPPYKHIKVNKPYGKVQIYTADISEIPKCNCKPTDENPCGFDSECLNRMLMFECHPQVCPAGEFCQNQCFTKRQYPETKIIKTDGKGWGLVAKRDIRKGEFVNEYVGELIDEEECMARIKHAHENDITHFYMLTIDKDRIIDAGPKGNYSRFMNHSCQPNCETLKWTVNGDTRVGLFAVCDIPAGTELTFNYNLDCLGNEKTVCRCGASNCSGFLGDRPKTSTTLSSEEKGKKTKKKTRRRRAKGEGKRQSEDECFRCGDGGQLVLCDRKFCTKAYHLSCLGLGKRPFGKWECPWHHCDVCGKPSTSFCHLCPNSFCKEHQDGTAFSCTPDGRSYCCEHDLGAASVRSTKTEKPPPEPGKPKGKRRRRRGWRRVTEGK
UniProt Q13287: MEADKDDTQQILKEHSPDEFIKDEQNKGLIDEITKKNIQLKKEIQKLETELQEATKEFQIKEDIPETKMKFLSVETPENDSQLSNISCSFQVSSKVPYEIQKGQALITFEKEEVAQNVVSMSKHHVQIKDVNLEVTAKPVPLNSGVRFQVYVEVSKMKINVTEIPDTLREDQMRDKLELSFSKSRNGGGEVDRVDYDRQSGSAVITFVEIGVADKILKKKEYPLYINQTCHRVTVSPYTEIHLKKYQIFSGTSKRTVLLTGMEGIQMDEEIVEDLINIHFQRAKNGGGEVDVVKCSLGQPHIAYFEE
UniProt O43847: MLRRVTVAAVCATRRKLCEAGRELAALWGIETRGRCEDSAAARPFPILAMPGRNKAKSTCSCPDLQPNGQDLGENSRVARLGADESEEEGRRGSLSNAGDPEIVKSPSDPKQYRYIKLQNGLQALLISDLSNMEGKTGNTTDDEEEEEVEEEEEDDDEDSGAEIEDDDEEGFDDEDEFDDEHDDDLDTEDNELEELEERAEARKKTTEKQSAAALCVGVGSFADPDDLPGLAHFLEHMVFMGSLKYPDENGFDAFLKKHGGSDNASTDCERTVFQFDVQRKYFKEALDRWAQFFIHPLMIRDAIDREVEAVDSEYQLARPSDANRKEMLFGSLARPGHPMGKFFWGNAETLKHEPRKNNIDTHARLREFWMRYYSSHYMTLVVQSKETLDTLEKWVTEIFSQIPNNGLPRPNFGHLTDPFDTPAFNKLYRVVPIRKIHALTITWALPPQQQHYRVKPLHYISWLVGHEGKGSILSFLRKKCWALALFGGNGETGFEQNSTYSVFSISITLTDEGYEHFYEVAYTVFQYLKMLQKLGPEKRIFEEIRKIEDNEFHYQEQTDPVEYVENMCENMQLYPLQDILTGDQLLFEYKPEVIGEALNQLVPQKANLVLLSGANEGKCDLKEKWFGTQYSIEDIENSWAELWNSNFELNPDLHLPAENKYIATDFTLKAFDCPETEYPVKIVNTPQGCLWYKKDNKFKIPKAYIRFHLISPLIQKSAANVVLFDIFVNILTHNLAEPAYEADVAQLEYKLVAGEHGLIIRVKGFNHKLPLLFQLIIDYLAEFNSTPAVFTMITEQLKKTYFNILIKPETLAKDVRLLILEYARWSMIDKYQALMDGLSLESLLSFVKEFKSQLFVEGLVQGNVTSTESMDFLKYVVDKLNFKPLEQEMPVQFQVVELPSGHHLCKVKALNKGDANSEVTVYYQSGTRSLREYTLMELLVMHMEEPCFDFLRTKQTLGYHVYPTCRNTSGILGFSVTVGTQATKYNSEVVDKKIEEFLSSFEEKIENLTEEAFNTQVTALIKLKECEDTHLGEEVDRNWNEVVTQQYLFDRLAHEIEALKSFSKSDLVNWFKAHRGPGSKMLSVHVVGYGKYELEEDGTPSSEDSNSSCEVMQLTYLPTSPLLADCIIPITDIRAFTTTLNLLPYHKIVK
UniProt Q96D46: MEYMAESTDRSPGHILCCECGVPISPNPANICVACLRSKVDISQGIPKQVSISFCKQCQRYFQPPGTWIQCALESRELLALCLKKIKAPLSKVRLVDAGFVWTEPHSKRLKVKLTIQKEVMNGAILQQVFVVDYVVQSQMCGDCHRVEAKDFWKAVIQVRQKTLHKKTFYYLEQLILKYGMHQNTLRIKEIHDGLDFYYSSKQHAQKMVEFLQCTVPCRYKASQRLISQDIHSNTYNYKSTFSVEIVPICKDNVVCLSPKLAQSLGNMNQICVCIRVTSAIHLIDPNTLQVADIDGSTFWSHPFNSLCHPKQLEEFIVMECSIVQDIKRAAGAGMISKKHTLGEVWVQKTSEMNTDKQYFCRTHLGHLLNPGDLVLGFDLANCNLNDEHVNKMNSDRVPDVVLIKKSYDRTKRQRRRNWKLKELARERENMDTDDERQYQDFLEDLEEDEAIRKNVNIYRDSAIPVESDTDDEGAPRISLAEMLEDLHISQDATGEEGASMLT
UniProt Q5SY16: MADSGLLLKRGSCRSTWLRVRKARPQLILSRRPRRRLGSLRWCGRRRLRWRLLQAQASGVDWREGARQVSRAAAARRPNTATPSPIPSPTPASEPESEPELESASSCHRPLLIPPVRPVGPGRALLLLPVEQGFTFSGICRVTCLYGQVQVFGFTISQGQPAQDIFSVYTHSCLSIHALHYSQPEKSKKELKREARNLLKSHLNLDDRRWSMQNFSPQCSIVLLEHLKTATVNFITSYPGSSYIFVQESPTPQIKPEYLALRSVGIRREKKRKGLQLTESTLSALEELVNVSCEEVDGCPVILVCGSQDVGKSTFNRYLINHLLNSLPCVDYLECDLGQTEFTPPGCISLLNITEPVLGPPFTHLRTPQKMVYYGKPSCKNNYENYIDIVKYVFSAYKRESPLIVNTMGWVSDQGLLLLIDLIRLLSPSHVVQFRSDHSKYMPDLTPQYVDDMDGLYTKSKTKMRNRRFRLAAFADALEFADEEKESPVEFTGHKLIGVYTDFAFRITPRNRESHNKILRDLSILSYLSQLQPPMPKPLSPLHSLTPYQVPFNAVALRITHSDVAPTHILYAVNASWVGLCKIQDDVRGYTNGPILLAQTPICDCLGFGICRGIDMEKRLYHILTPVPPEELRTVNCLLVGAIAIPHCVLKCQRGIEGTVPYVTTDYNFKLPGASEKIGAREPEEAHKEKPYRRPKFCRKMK
UniProt Q9BYT8, whole entry, looked up: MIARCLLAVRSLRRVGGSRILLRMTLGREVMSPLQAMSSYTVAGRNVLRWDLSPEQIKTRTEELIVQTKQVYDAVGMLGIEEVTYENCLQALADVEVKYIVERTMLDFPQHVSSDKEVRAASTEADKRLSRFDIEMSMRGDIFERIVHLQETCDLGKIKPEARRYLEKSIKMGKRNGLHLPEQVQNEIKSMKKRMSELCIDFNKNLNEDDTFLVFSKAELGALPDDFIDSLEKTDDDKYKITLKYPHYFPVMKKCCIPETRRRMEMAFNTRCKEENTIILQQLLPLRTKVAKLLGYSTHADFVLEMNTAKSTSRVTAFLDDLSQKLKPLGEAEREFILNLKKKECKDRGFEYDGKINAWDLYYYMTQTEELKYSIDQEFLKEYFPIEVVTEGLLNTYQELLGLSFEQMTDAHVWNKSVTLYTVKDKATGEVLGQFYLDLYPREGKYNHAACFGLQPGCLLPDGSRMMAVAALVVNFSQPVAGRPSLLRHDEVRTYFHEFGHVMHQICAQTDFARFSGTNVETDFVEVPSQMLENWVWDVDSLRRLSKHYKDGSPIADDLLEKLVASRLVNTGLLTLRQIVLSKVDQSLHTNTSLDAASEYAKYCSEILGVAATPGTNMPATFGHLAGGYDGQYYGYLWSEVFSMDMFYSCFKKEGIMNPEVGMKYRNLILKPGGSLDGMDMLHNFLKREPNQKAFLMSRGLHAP
UniProt Q9BSC4: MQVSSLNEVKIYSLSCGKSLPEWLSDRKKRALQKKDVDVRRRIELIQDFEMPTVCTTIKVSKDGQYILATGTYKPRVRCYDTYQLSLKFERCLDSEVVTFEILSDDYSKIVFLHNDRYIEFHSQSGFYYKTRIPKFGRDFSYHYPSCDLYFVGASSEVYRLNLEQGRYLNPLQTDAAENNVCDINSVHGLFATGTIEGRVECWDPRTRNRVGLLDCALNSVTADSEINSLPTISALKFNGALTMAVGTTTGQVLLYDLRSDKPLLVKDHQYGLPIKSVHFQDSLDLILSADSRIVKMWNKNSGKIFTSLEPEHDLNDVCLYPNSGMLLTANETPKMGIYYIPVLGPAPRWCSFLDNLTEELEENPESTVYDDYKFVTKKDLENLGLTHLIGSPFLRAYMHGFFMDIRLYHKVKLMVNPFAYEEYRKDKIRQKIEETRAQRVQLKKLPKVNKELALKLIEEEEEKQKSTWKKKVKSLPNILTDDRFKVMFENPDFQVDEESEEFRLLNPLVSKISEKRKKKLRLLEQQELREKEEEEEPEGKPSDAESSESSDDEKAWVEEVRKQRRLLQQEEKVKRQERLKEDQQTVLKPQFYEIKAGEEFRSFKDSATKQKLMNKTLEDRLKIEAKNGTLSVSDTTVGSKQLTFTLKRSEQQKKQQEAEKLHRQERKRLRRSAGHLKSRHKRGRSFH
UniProt Q3KNT7: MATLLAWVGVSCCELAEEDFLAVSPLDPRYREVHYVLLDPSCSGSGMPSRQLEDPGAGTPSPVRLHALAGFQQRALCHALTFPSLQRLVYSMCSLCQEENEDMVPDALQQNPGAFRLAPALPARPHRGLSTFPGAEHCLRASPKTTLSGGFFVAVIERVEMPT

Compound: CC1Cc2ccccc2N1C(=O)C1CCCN(C1)C(=O)CCl (mixture of isomers) [TRIM25 ligand 11 (diastereomer mixture)]
Assay: probe-labelled cysteine peptide fold change vs DMSO (competition) (log2 fold change); higher = less target engagement (more negative = stronger competition)
Details: THP-1, incubation time: 4 h
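Also: competitive chemoproteomic profiling in live THP-1 cells with an iodoacetamide desthiobiotin (IA-DTB) probe, comparing probe-labelled peptide intensities in compound-treated cells against DMSO-treated controls.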

Target	probe-labelled cysteine peptide fold change (10 µM)	probe-labelled cysteine peptide fold change (50 µM)
NR2C2AP_Q86WQ0_76_RGCLEGSQGTQALHK (UniProt Q86WQ0)	0.0576	0.147
NOP56_O00567_384_IDCFSEVPTSVFGEK (UniProt O00567)	0.0252	-0.0137
NOB1_Q9ULX3_147_GHSACEPENLEFSSFMFWR (UniProt Q9ULX3)	-0.0264	-0.119
NSD2_O96028_594_NLSDACK (UniProt O96028)	0.105	-0.0321
NMNAT1_Q9HAN9_111_LEASDCDHQQNSPTLERPGRK (UniProt Q9HAN9)	-0.0614	-0.245
NSD2_O96028_38_TPSCEVNR (UniProt O96028)	0.0182	-0.139
NMI_Q13287_230_EYPLYINQTCHR (UniProt Q13287)	0.0387	-0.0395
NOCT_Q9UK39_281_QFCIAVTHLK (UniProt Q9UK39)	-0.0478	0.216
NKTR_P30414_41_NFLCLCSGEK (UniProt P30414)	-0.181	-0.0383
NRDC_O43847_690_IVNTPQGCLWYK (UniProt O43847)	0.00502	0.182
NOL6_Q9H6R4_739_LDKPCPAYVEPMTVVCHLEGSGQWPQDAEAVQR (UniProt Q9H6R4)	-0.16	-0.0265
NMT2_O60551_485_CPGTDSEK (UniProt O60551)	-0.0282	-0.0411
NPLOC4_Q8TAT6_399_DECLLPCK (UniProt Q8TAT6)	0.191	0.311
NMD3_Q96D46_250_STFSVEIVPICK (UniProt Q96D46)	0.0106	0.0581
NRDE2_Q9H7Z3_1119_ALQNCPWAK (UniProt Q9H7Z3)	0.118	-0.0837
NR3C1_P04150_457_AVEGQHNYLCAGR (UniProt P04150)	0.0882	-0.0223
NPEPL1_Q8NDH3_504_ASEDPLLNLVSPLGCEVDVEEGDLGR (UniProt Q8NDH3)	-0.151	-0.106
NRDC_O43847_1027_LKECEDTHLGEEVDR (UniProt O43847)	0.0616	-0.176
NOTCH1_P46531_1293_VNDFHCECR (UniProt P46531)	0.0147	-0.0613
NPLOC4_Q8TAT6_188_FVALENISCK (UniProt Q8TAT6)	-0.00228	-0.0644
NMD3_Q96D46_214+218_MVEFLQCTVPCR (UniProt Q96D46)	-0.0897	-0.0864

Target	probe-labelled cysteine peptide fold change (10 µM)	probe-labelled cysteine peptide fold change (50 µM)
NSUN2_Q08J23_758_AGEPNSPDAEEANSPDVTAGCDPAGVHPPR (UniProt Q08J23)	-0.154	-0.0972
NSUN5_Q96P11_308_YHEVHYILLDPSCSGSGMPSR (UniProt Q96P11)	-0.725	-0.0597
NKTR_P30414_32_IMFQLFSDICPK (UniProt P30414)	-0.0454	-0.12
NSUN2_Q08J23_502_KDGVCGPPPSKK (UniProt Q08J23)	-0.178	-0.23
NOCT_Q9UK39_165_DNFVQCPVEALK (UniProt Q9UK39)	-0.0764	-0.0473
NNT_Q13423_936_EANSIIITPGYGLCAAK (UniProt Q13423)	-0.251	0.251
NOP2_P46087_393_ILDMCCAPGGK (UniProt P46087)	-0.0381	-0.0998
NLE1_Q9NVX2_152_FWDLSTETPHFTCK (UniProt Q9NVX2)	0.00814	0.198
NPC2_P61916_27_DCGSVDGVIK (UniProt P61916)	0.0241	0.00136
NRDC_O43847_1027_LKECEDTHLGEEVDRNWNEVVTQQYLFDR (UniProt O43847)	-0.368	-0.204
NPEPPS_P55786_66_LPADVSPINYSLCLKPDLLDFTFEGK (UniProt P55786)	0.0411	-0.151
NOP56_O00567_112_IGAAIQEELGYNCQTGGVIAEILR (UniProt O00567)	0.0784	-0.0484
NOL9_Q5SY16_219_WSMQNFSPQCSIVLLEHLK (UniProt Q5SY16)	0.0873	0.0078
NSD1_Q96L73_1185_ENSECAFR (UniProt Q96L73)	0.151	0.105
NOL8_Q76FK4_556_QCIRPAEIVASLLEGEENTCGK (UniProt Q76FK4)	-0.031	-0.204
NKTR_P30414_9_GAQDRPQCHFDIEINREPVGR (UniProt P30414)	-0.165	0.518
NT5C2_P49902_433_VTHDMDMCYGMMGSLFR (UniProt P49902)	0.038	-0.0497
NLN_Q9BYT8_451+458_YNHAACFGLQPGCLLPDGSR (UniProt Q9BYT8)	0.154	-0.1
NLN_Q9BYT8_199_MSELCIDFNK (UniProt Q9BYT8)	0.0765	-0.12
NOP56_O00567_211_IINDNATYCR (UniProt O00567)	0.0968	0.113
NOTCH1_P46531_922_NCETDIDDCRPNPCHNGGSCTDGINTAFCDCLPGFR (UniProt P46531)	-0.00672	-0.0992

Target	probe-labelled cysteine peptide fold change (10 µM)	probe-labelled cysteine peptide fold change (50 µM)
NSD2_O96028_1323+1324_SYCCEHDLGAASVR (UniProt O96028)	0.0302	-0.263
NMD3_Q96D46_321_QLEEFIVMECSIVQDIKR (UniProt Q96D46)	0.0388	0.118
NONO_Q15233_208_CSEGSFLLTTFPRPVTVEPMDQLDDEEGLPEK (UniProt Q15233)	0.0254	-0.302
NOP9_Q86U38_123_TGSEMLQELLGFSPLKPLCR (UniProt Q86U38)	-0.17	-0.294
NPEPL1_Q8NDH3_357_LVLADGVSYACK (UniProt Q8NDH3)	-0.118	-0.0773
NKRF_O15226_386_VFLQDHCLAEGYGTK (UniProt O15226)	0.179	0.0819
NPEPL1_Q8NDH3_311_DNLHAVFCLAENSVGPNATRPDDIHLLYSGK (UniProt Q8NDH3)	-0.00606	0.0858
NRDC_O43847_18_VTVAAVCATRRKLCEAGR (UniProt O43847)	-0.146	-0.193
NOL10_Q9BSC4_147_DFSYHYPSCDLYFVGASSEVYR (UniProt Q9BSC4)	-0.459	-0.299
NSUN2_Q08J23_673+678_YEPDSANPDALQCPIVLCGWR (UniProt Q08J23)	0.0479	0.0634
NMI_Q13287_295_CSLGQPHIAYFEE (UniProt Q13287)	-0.0717	-0.0357
NME7_Q9Y5B8_356_IQNAVHCTDLPEDGLLEVQYFFK (UniProt Q9Y5B8)	0.0466	-0.0398
NSF_P46459_334_LGANSGLHIIIFDEIDAICK (UniProt P46459)	0.0447	-0.14
NSDHL_Q15738_86_FFLGDLCSR (UniProt Q15738)	0.0494	-0.19
NOB1_Q9ULX3_288_VFCSHCGNK (UniProt Q9ULX3)	0.0852	0.0822
NPC1_O15118_177_ALGLLCGK (UniProt O15118)	0.114	-0.0232
NOL10_Q9BSC4_79_CYDTYQLSLK (UniProt Q9BSC4)	0.257	0.182
NOL10_Q9BSC4_55_IELIQDFEMPTVCTTIK (UniProt Q9BSC4)	0.065	-0.00413
NONO_Q15233_208_CSEGSFLLTTFPR (UniProt Q15233)	-0.0331	0.0275
NRBP1_Q9UHY1_340_LLAAHCIVGHQHMIPENALEEITK (UniProt Q9UHY1)	0.0635	0.0281
NSD2_O96028_743_FYHEACVK (UniProt O96028)	-0.119	0.0514

Target	probe-labelled cysteine peptide fold change (10 µM)	probe-labelled cysteine peptide fold change (50 µM)
NOL11_Q9H8H0_557_CNNCDQELNK (UniProt Q9H8H0)	0.00569	-0.00426
NRDC_O43847_1027_ECEDTHLGEEVDR (UniProt O43847)	0.131	0.225
NOL9_Q5SY16_581_ITHSDVAPTHILYAVNASWVGLCK (UniProt Q5SY16)	0.0829	0.1
NSMCE2_Q96MF7_210+215_AYCPQIGCSHTDIR (UniProt Q96MF7)	0.0981	0.362
NOB1_Q9ULX3_285+288_VFCSHCGNK (UniProt Q9ULX3)	-0.0482	0.0666
NOTCH2_Q04721_870_CTIDIDECISK (UniProt Q04721)	-0.0192	0.0735
NR2F6_P10588_316_AIALFTPDACGLSDPAHVESLQEK (UniProt P10588)	-0.0262	-0.322
NSD1_Q96L73_715_QKPLISNSHTDHLMGCTK (UniProt Q96L73)	0.0149	-0.355
NOTCH1_P46531_1218_GTQGVHCEINVDDCNPPVDPVSR (UniProt P46531)	0.186	-0.0677
NME1_P15531_145_EIGLWFHPEELVDYTSCAQNWIYE (UniProt P15531)	0.0437	-0.154
NKRF_O15226_424_SSQCHTGSSPR (UniProt O15226)	0.0529	-0.328
NR3C1_P04150_463_NDCIIDK (UniProt P04150)	-0.275	0.0998
NMNAT3_Q96T66_134_LLCGADVLK (UniProt Q96T66)	0.0413	0.0333
NT5C3A_Q9H0P0_73_VEEIICGLIK (UniProt Q9H0P0)	0.0967	-0.154
NSF_P46459_264_GILLYGPPGCGK (UniProt P46459)	-0.0125	0.000825
NRDC_O43847_674_AFDCPETEYPVK (UniProt O43847)	0.103	0.0105
NSD2_O96028_44_ECSVFLSK (UniProt O96028)	0.159	-0.142
NLRC5_Q86WI3_1671_RLEELMLGCNALGDPTALGLAQELPQHLR (UniProt Q86WI3)	0.0768	-0.145
NSUN5P1_Q3KNT7_138_GLSTFPGAEHCLR (UniProt Q3KNT7)	0.113	-0.0724
